This is a selection; strong and weak results do not stand in their true shares.
compound: COC(=O)C#Cc1ccccc1 [methyl 3-phenylpropiolate]; assay: log2 ratio of iodoacetamide-alkyne labeling of the cysteine site, DMSO over compound (competition); higher = stronger covalent engagement of the cysteine by the compound, active = 1 or more; details: 500 µM; treatment time 1 h; system: HEK293T cell lysate
Summary of the method: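 Reporter intensities give each cysteine's log2 competition ratio as the mean of control channels over the mean of compound channels. The samples were HEK293T lysate (2 mg/mL) given vehicle or electrophile (500 µM, 1 h, ambient temperature), then iodoacetamide alkyne (1 h), followed by click coupling to sCIP-TMT reagents, pooling, trypsin digestion overnight at 37 °C, streptavidin enrichment, acid elution, Orbitrap Eclipse LC-MS/MS with FAIMS and FragPipe quantification. Duplicate channels and three replicates were run, and cysteines quantified in only one replicate were discarded.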

By UniProt entry, the sequences of proteins in these tests, tags left out. Where a name states a change or a piece, a line headed by the entry shows the natural chain unless it says otherwise.
UniProt O95487: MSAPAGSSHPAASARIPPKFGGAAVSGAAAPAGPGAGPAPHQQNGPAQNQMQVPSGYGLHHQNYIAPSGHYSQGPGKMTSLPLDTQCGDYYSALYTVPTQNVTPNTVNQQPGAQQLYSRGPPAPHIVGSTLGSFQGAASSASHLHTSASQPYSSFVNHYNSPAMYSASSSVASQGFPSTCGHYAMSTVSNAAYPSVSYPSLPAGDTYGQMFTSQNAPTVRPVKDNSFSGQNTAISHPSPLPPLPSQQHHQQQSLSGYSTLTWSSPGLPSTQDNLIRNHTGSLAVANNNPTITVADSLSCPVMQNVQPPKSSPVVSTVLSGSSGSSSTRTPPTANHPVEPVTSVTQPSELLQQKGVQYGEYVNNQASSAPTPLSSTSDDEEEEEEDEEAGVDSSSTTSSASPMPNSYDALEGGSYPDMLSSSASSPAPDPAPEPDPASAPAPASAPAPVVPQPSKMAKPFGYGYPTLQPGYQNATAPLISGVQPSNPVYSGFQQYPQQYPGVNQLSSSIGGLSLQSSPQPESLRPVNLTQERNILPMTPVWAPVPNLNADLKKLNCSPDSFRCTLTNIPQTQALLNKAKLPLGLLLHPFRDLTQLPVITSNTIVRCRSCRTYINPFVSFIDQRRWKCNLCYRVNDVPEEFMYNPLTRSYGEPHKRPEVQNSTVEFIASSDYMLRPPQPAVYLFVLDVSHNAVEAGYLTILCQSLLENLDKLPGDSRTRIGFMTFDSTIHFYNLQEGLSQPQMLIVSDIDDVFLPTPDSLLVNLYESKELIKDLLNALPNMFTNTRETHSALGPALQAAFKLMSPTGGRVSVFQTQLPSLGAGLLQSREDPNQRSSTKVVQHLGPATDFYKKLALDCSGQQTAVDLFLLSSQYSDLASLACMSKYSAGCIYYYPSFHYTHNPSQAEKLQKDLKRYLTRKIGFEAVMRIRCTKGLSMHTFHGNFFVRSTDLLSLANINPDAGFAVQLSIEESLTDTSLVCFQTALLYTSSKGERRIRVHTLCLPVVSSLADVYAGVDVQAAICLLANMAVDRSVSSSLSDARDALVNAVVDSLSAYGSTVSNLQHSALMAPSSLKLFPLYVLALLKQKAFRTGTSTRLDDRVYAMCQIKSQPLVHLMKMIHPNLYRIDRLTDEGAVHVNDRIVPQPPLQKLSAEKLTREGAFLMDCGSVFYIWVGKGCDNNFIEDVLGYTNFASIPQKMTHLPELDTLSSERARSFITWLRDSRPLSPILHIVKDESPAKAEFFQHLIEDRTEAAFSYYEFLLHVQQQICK
UniProt P04075: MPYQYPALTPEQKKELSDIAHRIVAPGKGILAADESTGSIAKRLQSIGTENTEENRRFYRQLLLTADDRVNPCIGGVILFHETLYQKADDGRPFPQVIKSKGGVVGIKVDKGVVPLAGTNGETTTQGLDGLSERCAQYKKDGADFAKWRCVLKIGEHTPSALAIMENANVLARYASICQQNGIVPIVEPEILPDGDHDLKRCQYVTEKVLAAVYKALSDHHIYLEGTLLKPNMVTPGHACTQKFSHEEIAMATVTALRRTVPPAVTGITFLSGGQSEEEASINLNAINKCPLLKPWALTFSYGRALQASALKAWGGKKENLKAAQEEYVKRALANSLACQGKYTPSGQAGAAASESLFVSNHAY
UniProt O95714: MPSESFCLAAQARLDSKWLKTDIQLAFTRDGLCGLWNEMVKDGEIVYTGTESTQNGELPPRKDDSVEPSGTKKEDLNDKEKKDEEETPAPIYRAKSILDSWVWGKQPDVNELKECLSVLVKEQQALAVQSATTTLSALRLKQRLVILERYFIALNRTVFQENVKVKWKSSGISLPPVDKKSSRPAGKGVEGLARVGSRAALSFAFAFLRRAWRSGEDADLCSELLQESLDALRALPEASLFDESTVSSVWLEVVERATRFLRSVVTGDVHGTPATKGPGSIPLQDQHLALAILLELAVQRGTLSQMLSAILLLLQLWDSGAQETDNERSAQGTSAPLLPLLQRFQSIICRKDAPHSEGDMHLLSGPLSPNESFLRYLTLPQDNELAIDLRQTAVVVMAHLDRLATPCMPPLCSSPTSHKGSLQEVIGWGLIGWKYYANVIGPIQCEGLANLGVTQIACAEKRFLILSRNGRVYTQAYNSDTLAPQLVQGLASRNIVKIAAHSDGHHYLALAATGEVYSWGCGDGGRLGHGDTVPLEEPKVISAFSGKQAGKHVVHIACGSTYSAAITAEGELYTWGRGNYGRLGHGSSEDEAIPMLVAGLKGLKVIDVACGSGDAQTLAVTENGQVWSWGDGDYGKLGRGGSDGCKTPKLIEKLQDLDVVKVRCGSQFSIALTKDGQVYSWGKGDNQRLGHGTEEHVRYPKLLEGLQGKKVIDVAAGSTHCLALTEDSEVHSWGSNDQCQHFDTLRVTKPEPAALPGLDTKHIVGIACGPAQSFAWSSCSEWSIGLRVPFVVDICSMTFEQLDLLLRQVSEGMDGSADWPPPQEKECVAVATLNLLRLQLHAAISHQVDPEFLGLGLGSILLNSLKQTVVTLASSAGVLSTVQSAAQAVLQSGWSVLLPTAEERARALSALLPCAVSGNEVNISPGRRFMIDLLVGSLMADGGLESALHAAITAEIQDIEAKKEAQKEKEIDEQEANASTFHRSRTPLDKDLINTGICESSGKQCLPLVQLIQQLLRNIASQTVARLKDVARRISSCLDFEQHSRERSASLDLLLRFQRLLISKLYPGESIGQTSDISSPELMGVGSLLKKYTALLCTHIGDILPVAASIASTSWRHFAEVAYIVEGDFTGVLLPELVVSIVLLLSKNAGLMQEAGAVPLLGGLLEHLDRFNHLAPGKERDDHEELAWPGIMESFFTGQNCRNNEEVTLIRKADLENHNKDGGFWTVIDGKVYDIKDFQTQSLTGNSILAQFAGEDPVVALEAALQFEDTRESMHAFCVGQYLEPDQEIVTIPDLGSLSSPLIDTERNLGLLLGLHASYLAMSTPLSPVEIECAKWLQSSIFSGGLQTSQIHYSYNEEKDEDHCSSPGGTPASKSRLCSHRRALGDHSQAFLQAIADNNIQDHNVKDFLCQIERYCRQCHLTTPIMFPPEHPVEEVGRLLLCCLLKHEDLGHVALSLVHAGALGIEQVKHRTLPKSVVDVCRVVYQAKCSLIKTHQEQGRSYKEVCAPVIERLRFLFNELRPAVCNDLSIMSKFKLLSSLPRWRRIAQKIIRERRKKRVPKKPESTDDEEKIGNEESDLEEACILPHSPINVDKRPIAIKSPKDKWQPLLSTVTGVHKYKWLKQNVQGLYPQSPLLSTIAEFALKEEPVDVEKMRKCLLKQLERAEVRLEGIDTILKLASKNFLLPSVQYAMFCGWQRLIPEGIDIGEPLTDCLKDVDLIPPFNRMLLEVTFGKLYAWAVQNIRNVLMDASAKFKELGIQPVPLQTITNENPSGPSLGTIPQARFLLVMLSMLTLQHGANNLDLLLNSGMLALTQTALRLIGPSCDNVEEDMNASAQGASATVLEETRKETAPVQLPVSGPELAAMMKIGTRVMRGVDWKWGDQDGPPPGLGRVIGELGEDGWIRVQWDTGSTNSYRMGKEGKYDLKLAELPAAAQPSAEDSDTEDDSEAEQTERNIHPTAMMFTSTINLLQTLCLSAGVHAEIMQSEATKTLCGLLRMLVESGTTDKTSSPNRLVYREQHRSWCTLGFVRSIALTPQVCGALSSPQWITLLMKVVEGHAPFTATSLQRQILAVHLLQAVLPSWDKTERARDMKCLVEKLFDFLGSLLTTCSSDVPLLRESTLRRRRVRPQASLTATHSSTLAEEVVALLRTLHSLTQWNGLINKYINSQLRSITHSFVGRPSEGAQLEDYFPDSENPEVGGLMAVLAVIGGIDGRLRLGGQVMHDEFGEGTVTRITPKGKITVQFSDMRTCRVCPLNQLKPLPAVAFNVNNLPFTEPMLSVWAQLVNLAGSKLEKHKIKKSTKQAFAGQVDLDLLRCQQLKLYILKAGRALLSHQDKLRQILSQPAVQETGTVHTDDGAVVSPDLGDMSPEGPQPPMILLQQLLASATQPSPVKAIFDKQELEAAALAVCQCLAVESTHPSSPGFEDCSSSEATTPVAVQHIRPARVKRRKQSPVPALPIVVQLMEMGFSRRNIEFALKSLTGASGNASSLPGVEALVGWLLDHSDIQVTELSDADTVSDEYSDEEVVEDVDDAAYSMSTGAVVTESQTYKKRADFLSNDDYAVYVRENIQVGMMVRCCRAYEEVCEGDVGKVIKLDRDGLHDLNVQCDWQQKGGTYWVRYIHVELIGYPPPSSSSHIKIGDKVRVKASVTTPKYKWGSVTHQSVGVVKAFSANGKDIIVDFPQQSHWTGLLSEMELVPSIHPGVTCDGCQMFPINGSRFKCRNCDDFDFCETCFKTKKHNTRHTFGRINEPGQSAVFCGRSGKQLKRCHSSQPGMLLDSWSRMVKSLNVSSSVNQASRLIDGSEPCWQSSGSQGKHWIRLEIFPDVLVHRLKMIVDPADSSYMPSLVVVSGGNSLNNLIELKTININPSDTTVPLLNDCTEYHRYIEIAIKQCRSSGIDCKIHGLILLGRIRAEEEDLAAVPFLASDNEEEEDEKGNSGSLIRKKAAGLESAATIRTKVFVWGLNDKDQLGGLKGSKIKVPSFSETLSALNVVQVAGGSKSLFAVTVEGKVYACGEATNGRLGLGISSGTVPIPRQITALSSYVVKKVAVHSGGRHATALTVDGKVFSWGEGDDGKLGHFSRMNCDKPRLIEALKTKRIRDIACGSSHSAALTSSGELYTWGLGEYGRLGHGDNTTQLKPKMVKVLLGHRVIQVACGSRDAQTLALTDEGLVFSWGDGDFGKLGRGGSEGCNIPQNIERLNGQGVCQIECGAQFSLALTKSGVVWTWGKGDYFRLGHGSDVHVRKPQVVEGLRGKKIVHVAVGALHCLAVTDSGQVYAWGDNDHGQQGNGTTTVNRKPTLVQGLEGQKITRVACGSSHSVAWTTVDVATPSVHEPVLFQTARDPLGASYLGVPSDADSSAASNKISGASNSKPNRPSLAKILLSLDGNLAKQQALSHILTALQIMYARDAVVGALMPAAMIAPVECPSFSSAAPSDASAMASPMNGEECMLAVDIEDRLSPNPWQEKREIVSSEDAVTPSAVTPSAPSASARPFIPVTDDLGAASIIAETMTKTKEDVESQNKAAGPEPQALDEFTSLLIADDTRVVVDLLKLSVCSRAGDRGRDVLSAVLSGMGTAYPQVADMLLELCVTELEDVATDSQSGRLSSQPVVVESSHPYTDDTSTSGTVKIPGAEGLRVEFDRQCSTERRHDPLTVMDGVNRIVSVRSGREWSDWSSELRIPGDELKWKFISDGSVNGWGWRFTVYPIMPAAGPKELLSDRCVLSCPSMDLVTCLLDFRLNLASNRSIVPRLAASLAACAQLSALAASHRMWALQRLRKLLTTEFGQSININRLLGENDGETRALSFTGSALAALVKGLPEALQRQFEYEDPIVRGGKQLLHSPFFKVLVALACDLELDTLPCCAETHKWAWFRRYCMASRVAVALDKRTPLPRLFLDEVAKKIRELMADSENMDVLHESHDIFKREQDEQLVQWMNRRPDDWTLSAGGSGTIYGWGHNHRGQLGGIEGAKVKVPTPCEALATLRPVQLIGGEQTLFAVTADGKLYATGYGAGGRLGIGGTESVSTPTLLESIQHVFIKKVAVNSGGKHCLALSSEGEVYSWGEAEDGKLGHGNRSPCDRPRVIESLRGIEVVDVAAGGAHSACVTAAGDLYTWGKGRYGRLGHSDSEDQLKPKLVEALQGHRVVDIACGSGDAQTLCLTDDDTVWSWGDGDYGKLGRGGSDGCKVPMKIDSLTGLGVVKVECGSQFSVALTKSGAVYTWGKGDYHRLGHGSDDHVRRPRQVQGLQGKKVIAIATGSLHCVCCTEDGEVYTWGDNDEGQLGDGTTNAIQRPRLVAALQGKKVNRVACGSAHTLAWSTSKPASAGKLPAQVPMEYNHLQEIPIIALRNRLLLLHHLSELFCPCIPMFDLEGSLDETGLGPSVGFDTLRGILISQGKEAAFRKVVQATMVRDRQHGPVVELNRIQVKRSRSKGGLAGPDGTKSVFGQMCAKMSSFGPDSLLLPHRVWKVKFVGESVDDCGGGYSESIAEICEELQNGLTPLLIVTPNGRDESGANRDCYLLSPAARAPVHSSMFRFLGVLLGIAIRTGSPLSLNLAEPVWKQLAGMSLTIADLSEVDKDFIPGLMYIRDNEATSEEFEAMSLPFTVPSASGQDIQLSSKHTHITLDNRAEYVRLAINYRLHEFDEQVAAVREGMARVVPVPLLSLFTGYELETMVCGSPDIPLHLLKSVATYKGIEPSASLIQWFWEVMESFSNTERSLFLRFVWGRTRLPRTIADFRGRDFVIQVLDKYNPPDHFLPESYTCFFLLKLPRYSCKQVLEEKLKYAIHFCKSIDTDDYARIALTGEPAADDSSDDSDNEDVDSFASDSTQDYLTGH

Target	log2 ratio of iodoacetamide-alkyne labeling
GNAI2 C112 (UniProt P04899)	inactive: 0.0543
DDHD2 C470 (UniProt O94830)	inactive: 0.283
NPM1 C104 (UniProt P06748)	inactive: 0.204
PYGL C581 (UniProt P06737)	inactive: -0.0352
SEC24B C562 (UniProt O95487)	inactive: 0.735
UniProt O94826_C544	inactive: 0.198
GLUD1 C327 (UniProt P00367)	inactive: 0.248
AIFM1 C256 (UniProt O95831)	inactive: -0.283
UniProt O95232_C40	inactive: -0.0395
UniProt O95104_C102	inactive: -0.0481
AK1 C187 (UniProt P00568)	inactive: 0.0768
AP2A1 C492 (UniProt O95782)	inactive: 0.467
EPRS C1076 (UniProt P07814)	inactive: 0.108
MOCS2 C10 (UniProt O96007)	inactive: 0.472
PGM3 C93 (UniProt O95394)	inactive: 0.156
HSPA4L C540 (UniProt O95757)	inactive: 0.885
SSB C245 (UniProt P05455)	inactive: 0.0576
GPX1 C115 (UniProt P07203)	inactive: 0.246
LDHA C185 (UniProt P00338)	inactive: 0.156

Target	log2 ratio of iodoacetamide-alkyne labeling
BPNT1 C42 (UniProt O95861)	inactive: 0.266
HEXIM1 C79 (UniProt O94992)	active: 1.3
ZFPL1 C230 (UniProt O95159)	inactive: 0.347
TP53 C275 (UniProt P04637)	inactive: 0.619
UniProt P00491_C31	inactive: 0.101
EPRS C1148 (UniProt P07814)	inactive: 0.157
ACSL3 C450 (UniProt O95573)	inactive: 0.0397
HSPA4L C290 (UniProt O95757)	inactive: -0.0192
ALDOA C73 (UniProt P04075)	inactive: 0.116
MFN2 C482 (UniProt O95140)	inactive: 0.471
SMC2 C326 (UniProt O95347)	inactive: 0.547
HERC2 C2726 (UniProt O95714)	inactive: -0.00741
UniProt P07437_C12	inactive: 0.57
GOT2 C382 (UniProt P00505)	inactive: 0.0137
STAMBP C264 (UniProt O95630)	inactive: 0.0695
MBD3 C266 (UniProt O95983)	inactive: 0.0164
ENO1 C119 (UniProt P06733)	inactive: -0.134
UniProt O95232_C43	inactive: 0.186
PRPF6 C807 (UniProt O94906)	inactive: 0.188

2 entries from above, field by field:
BPNT1 C42 (UniProt O95861)
  log2 ratio of iodoacetamide-alkyne labeling: inactive: 0.266
HEXIM1 C79 (UniProt O94992)
  log2 ratio of iodoacetamide-alkyne labeling: active: 1.3

Source: the supplement of paper PMC11006884
